Measured values from PMC8155215, “The splicing factor XAB2 interacts with ERCC1-XPF and XPG for R-loop processing”.

T1: biotin-tagged XAB2 (XPA-binding protein 2) from aviXab2+/+;birA knock-in mice (mouse) (UniProt Q9DCD2)
T1 sequence (chain, biotin on the 15aa Avitag (added in vivo by the BirA ligase)): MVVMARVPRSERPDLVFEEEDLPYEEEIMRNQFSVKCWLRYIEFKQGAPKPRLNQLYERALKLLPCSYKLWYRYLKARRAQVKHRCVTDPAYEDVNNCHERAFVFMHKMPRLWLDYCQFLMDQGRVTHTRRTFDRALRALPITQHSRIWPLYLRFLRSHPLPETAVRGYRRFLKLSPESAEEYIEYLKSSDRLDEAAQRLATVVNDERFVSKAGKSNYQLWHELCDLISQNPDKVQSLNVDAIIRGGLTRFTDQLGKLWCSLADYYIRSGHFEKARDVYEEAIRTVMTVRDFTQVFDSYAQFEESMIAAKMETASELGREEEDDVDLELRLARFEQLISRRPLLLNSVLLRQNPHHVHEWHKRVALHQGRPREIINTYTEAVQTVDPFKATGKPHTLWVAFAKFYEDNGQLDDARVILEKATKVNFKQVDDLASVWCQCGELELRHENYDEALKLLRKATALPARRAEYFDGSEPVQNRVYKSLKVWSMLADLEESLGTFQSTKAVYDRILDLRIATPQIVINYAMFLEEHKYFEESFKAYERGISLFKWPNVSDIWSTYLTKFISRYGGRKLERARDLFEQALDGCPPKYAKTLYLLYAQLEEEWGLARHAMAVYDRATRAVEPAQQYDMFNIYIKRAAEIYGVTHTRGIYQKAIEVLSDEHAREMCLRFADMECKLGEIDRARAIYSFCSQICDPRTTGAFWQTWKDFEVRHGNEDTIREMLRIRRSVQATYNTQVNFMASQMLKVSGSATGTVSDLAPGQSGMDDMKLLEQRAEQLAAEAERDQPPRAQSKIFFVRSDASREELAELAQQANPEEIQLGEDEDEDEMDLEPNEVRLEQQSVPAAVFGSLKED


Molecular target: T1, biotin-tagged XAB2 (XPA-binding protein 2) from aviXab2+/+;birA knock-in mice (mouse)
Experiment: affinity purification with mass spectrometry; bXAB2 captured on M-280 streptavidin beads from high-salt nuclear extracts of P15 bXAB2 livers treated with benzonase and RNase A; BirA livers as control; three biological replicates, nLC-MS/MS

Binder | binding
STAG1 (protein, UniProt Q9D3E6 1-1258) MITSELPVLQDSTNETTAHSDAGSELEETEVKGKRKRGRPGRPPSTNKKPRKSPGEKSRIEAGIRGAGRGRANGHPQQNGDGDPVTLFEVVKLGKSAMQSVVDDWIELYKQDRDIALLDLINFFIQCSGCRGTVRIEMFRNMQNAEIIRKMTEEFDEDSGDYPLTMPGPQWKKFRSNFCEFIGVLIRQCQYSIIYDEYMMDTVISLLTGLSDSQVRAFRHTSTLAAMKLMTALVNVALNLSIHQDNTQRQYEAERNKMIGKRANERLELLLQKRKELQENQDEIENMMNSIFKGIFVHRYRDAIAEIRAICIEEIGVWMKMYSDAFLNDSYLKYVGWTLHDRQGEVRLKCLKALQSLYTNRELFPKLELFTNRFKDRIVSMTLDKEYDVAVEAIRLVTLILHGSEEALSNEDCENVYHLVYSAHRPVAVAAGEFLHKKLFSRHDPQAEEALAKRRGRNSPNGNLIRMLVLFFLESELHEHAAYLVDSLWESSQELLKDWECMTELLLEEPVQGEEAMSDRQESALIELMVCTIRQAAEAHPPVGRGTGKRVLTAKERKTQIDDRNKLTEHFIITLPMLLSKYSADAEKVANLLQIPQYFDLEIYSTGRMEKHLDALLKQIKFVVEKHVESDVLEACSKTYSILCSEEYTIQNRVDIARSQLIDEFVDRFNHSVEDLLQEGEEADDDDIYNVLSTLKRLTSFHNAHDLTKWDLFGNCYRLLKTGIEHGAMPEQIVVQALQCSHYSILWQLVKITDGSPSKEDLLVLRKTVKSFLAVCQQCLSNVNTPVKEQAFMLLCDLLMIFSHQLMTGGREGLQPLVFNPDTGLQSELLSFVMDHVFIDQDEENQSMEGDEEDEANKIEALHKRRNLLAAFSKLIIYDIVDMHAAADIFKHYMKYYNDYGDIIKETLSKTRQIDKIQCAKTLILSLQQLFNELVQEQGPNLDRTSAHVSGIKELARRFALTFGLDQIKTREAVATLHKDGIEFAFKYQNQKGQEYPPPNLAFLEVLSEFSSKLLRQDKKTVHSYLEKFLTEQMMERREDVWLPLISYRNSLVTGGEDDRMSVNSGSSSSKTSSVRSKKGRPPLHRKRVEDESLDNTWLNRTDTMIQTPGPLPTPQLTSTVLRENSRPMGEQIQEPESEHGSEPDFLHNPQMQISWLGQPKLEDLNRKDRTGMNYMKVRAGVRHAVRGLMEEDAEPIFEDVMMSSRSQLEDMNEEFEDTMVIDLPPSRNRRERAELRPDFFDSAAIIEDDSGFGMPMF | binds
NOP58 (protein, UniProt Q6DFW4 1-536) MLVLFETSVGYAIFKVLNEKKLQEVDSLWKEFETPEKANKIVKLKHFEKFQDTAEALAAFTALMEGKINKQLKKVLKKIVKEAHEPLAVADAKLGGVIKEKLNLSCIHSPVVNELMRGIRSQMDGLIPGVEPREMAAMCLGLAHSLSRYRLKFSADKVDTMIVQAISLLDDLDKELNNYIMRCREWYGWHFPELGKIISDNLTYCKCLQKVGDRKNYASASLSEFLSEEVEAEVKAAAEISMGTEVSEEDICNILHLCTQVIEISEYRTQLYEYLQNRMMAIAPNVTVMVGELVGARLIAHAGSLLNLAKHAASTVQILGAEKALFRALKSRRDTPKYGLIYHASLVGQSSPKHKGKISRMLAAKTVLAIRYDAFGEDSSSAMGIENRAKLEARLRILEDRGIRKISGTGKALAKAEKYEHKSEVKTYDPSGDSTLPTCSKKRKIEEVDKEDEITEKKAKKAKIKIKAEVEEEMEEEEAEEEQVVEEEPTVKKKKKKDKKKHIKEEPLSEEEPCTSTAVPSPEKKKKKKKKKDAED | binds
WDR43 (protein, UniProt Q6ZQL4 1-677) MAAGGGGSYDPLAPAGVPCAFSPDSQAYFALASSDGQLRVWETANNRLHQEYVPSAHLSGTCTCLAWAPARLQAKESHQRKKRKSEVTGTKDQADLLALGTAVGSILLYSTVRGELHSKLTSGGHENRVNCIQWHQDNDCLYSCSDDKYIVEWSTQTCKVKCKWKGDNSSVSSLCISPDGKMLLSAGRTIKLWVLETKEVYRHFTGHATPVSSLRFTTIRPNESQPSDGITGLYFLSGAVHDRLLNVWQVRSENKEKSAVMSFTVTDEPVYVDLTLSENKEEPVKLAVVCRDGQVHLFEHILNGHCKKPLTSNCTIQIATPGKGKKVTPKPIPILAASFCLDKMSLLLVYGNWFQPTIERVALNSKDTHICLERDISNCWAPTVETAITKVKTPVMNSEAKVLVPGIPGHHAPIKLPPAQPKEAENKRKLGSTEATIEERLGAMDLDRKGRKDDLQTNSFAVLLTQGLESNDFEILNKVLQTKNVNLIKRTVLRIPLRVVIPLLQELTKRLQGHPNSAALMIQWLKCVLTIHASYLSTLPDLVEQLGTLYQLMESRVKTFQKLSNLHGKLILLVTQVTASEKSKKMTSPGQKAKLVYEEESSEEESDDEVPEKDSDDNWDEDEDKDSEKDEGVDEDNEEEDEDMEDKEENEEDREVSSEKELNGDSDLDPENESEEE | binds

Second part, the binder after the results:

binding | Binder
binds | GNL3 (protein, UniProt Q8CI11 1-538) MKRPKLKKASKRMTCHKRYKIQKKVREHHRKLRKEAKKRGHKKPRKDPGVPNSAPFKEALLREAELRKQQLEELKQQQKLDRQKEQERKRKLEVSPGDEQSNVETREESDEPKRKKAKAGKQNPKKLHCQELKKVIEASDIVLEVLDARDPLGCRCPQIEEAVIQSGSKKLILVLNKSDLVPKENLENWLNYLNKELPTVVFKASTNLKNRKTFKIKKKKVVPFQSKICCGKEALWKLLGDFQQSCGKDIQVGVIGFPNVGKSSVINSLKQEWICNVGISMGLTRSMQIVPLDKQITIIDSPCLIISPCNSPTALALRSPASIEELRPLEAASAILSQADNEQVVLKYTVPEYKDSLHFFTKLAQRRGLHQKGGSPNVESAAKLVWSEWTGASLGYYCHPPASWNHSLHFNENIAAVMKKGFNLEELEKNNAHSIQVLKGPHLTNRILFRSSGLTNGILDEKDIVEESPRQTEDKQDADDQENGSGERNAEISDVAPVEETRELSPEQSTAGKPSDGSSALDRASQEDETYDFTTDYI
binds | STAG2 (protein, UniProt O35638 1-1231) MIAAPEIPTDFNLLQESETHFSSDTDFEDIEGKNQKQGKGKTCKKGKKGPAEKGKSGNGGGKPPSGSNRMNGHHQQNGVENMMLFEVVKMGKSAMQSVVDDWIESYKHDRDIALLDLINFFIQCSGCKGVVTAEMFRHMQNSEIIRKMTEEFDEDSGDYPLTMAGPQWKKFKSSFCEFIGVLVRQCQYSIIYDEYMMDTVISLLTGLSDSQVRAFRHTSTLAAMKLMTALVNVALNLSINMDNTQRQYEAERNKMIGKRANERLELLLQKRKELQENQDEIENMMNAIFKGVFVHRYRDAIAEIRAICIEEIGIWMKMYSDAFLNDSYLKYVGWTMHDKQGEVRLKCLTALQGLYYNKELNSKLELFTSRFKDRIVSMTLDKEYDVAVQAIKLLTLVLQSSEEVLTAEDCENVYHLVYSAHRPVAVAAGEFLYKKLFSRRDPEEDGLMKRRGRQGPNANLVKTLVFFFLESELHEHAAYLVDSMWDCATELLKDWECMNSLLLEEPLSGEEALTDRQESALIEIMLCTIRQAAECHPPVGRGTGKRVLTAKEKKTQLDDRTRITELFAVALPQLLAKYSVDAEKVTNLLQLPQYFDLEIYTTGRLEKHLDALLRQIRNIVEKHTDTDVLEACSKTYHALCNEEFTIFNRVDISRSQLIDELADKFNRLLEDFLQEGEEPDEDDAYQVLSTLKRITAFHNAHDLSKWDLFACNYKLLKTGIENGDMPEQIVIHALQCAHYVILWQLAKITESTSTKEDLLRLKKQMRVFCQICQHYLTNVNTTVKEQAFTILCDILMIFSHQIMSGGRDMLEPLVYTPDSSLQSELLSFILDHVFIEQDDDSNSADGQQEDEASKIEALHKRRNLLAAFCKLIVYTVVEMNTAADIFKQYMKYYNDYGDIIKETMSKTRQIDKIQCAKTLILSLQQLFNEMIQENGYNFDRSSSTFSGIKELARRFALTFGLDQLKTREAIAMLHKDGIEFAFKEPNPQGESHPPLNLAFLDILSEFSSKLLRQDKRTVYVYLEKFMTFQMSLRREDVWLPLMSYRNSLLAGGDDDTMSVISGMSSRGSTVRSKKSKPSTGKRKVVEGMQLALPEESSSSDSMWLSREQTLHTPVMMQTPQLTSTIMREPKRLRPEDSFMSVYPMQAEHHQTPLDYNRRGTSLMEDDEEPIVEDVMMSSEGRIEDLNEGMDFDTMDIDLPPSKNRRERTELKPDFFDPASIMDESVLGVSMF
binds | UTP15 (protein, UniProt Q8C7V3 1-528) MAGYKPVAIQTYPVLGEKITQDTLYWNNYKTPVQIKEFGAVSKVDFSPQLPYNYAVTASSRIHIYGRYSQEPVKTFSRFKDTAYCATFRQDGQLLVAGSEDGVVQLFDINGRAPLRQFEGHTKAVHTVDFTADNYHVVSGADDYTVKLWDIPNSKEILTFKEHSDYVRCGCASKLNPDLFVTGSYDHTVKIFDARTNKNVLCVEHGQPVESVLLFPSGGLLVSAGGRYVKVWDMLKGGQLLVSLKNHHKTVTCLCLSSSGQRLLSGSLDRKVKVYSTTSYKVVHSFDYAASILSLALSHQDETIVVGMTNGILSVKHRKSEAKKTSLPRRRRPAYRTFIKGKNYLKQRDDIMVSRPAKKHLEGYDKDLKSFRVSQALDRVLEPKCVIRTPEVTVSIIKELTRRGVLANALAGRDEKEVTRVLNFLIRNLSQPRFAPVLINAAEIIIDIYLPVIGQSSVVDKKFIVLQELVEKEIDYQRELLETLGMMDMLFATMTRNDSDPVPEHVPAELPEEKTESPTQPSDTDKNS

These are yes or no findings as the source states them, for the method shown. In cells and extracts the contact can be indirect. Here binding means that the protein was enriched with, or labelled near, the bait; the list need not be complete. Tags and fused reporters may be left off the sequences shown.
